# According to doi:10.1101/2025.06.16.659956:
# Sequences of proteins named here, by UniProt entry; tags and fusion partners are left off.
# UniProt Q6PDQ2: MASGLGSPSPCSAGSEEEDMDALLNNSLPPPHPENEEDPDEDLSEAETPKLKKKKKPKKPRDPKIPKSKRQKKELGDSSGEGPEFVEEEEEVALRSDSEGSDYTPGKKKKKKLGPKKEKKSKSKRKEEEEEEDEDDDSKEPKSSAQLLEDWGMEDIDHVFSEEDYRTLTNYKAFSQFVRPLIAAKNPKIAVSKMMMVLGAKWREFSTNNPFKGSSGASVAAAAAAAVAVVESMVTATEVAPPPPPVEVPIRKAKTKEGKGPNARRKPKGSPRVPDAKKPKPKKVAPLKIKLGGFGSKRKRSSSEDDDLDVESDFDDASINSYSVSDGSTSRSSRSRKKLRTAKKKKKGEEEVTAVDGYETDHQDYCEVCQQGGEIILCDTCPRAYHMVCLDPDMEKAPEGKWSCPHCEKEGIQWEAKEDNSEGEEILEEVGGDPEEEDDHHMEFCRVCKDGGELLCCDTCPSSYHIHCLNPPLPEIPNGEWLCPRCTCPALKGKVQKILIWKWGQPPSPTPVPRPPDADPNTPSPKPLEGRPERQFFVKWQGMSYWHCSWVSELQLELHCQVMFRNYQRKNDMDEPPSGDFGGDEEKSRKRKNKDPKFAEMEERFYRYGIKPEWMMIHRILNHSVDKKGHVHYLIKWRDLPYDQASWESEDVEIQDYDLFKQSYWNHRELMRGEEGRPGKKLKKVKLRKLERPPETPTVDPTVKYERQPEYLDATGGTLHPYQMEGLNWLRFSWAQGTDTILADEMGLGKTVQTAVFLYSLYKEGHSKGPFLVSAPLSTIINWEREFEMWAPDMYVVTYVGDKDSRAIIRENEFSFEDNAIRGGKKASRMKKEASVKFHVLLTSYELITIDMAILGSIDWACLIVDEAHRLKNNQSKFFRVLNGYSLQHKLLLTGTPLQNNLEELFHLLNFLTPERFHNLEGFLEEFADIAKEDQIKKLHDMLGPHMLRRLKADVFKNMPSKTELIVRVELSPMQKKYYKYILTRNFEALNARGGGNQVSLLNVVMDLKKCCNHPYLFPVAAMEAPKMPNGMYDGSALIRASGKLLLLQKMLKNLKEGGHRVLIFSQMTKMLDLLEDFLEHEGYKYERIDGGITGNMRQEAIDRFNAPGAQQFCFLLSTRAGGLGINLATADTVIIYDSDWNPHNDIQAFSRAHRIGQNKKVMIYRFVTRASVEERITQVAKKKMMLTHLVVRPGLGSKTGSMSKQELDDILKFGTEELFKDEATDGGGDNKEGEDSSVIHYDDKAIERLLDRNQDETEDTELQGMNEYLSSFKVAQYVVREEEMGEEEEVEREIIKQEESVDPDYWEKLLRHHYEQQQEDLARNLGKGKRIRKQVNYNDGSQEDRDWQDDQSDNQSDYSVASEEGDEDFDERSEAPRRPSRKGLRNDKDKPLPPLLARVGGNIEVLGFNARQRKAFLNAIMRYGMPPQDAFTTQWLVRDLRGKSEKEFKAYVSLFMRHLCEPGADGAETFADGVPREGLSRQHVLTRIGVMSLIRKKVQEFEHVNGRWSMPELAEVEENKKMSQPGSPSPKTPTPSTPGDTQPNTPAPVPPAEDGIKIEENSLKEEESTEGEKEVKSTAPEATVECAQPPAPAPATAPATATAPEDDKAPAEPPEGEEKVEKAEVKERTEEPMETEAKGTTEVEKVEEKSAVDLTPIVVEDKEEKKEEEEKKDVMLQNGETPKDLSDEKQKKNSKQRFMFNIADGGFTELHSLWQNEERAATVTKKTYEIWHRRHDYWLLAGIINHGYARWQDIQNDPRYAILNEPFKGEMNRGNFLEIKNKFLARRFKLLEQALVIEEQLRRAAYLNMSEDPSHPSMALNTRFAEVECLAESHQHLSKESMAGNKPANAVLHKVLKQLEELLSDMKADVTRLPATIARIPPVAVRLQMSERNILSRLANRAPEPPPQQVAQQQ
# No constants are given. Whether binding was seen depends on the method and setting. Binding seen in cells or lysates may run through a third protein. Some entries that bind do so weakly or less than the wild type. For some assays here: Sequences can lack the tags named with a protein.
# T1: 3x Myc-NKX2.2 WT (full-length NKX2.2 with 3 myc epitope tags at the N-terminus) (UniProt P42586)
# T1 sequence: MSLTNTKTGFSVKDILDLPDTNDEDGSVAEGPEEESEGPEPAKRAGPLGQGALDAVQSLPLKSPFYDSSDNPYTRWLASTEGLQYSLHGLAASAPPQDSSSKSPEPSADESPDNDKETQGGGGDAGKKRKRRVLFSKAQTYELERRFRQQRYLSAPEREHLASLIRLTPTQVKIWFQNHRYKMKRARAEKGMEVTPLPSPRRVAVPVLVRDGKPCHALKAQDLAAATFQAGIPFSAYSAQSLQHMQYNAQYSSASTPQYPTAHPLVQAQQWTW
# What was measured:
# [1] = target: T1, 3x Myc-NKX2.2 WT (full-length NKX2.2 with 3 myc epitope tags at the N-terminus); assay: co-IP
# [2] = target: Chromodomain Helicase DNA-binding Protein 4 (CHD4) (mouse (endogenous in MIN6)) (UniProt Q6PDQ2); assay: co-IP
binding [1],binding [2],Molecule
binds,–,Chromodomain Helicase DNA-binding Protein 4 (CHD4) (from UniProt Q6PDQ2 1-1915)
–,binds,"endogenous NKX2.2 (protein, UniProt P42586 1-273) MSLTNTKTGFSVKDILDLPDTNDEDGSVAEGPEEESEGPEPAKRAGPLGQGALDAVQSLPLKSPFYDSSDNPYTRWLASTEGLQYSLHGLAASAPPQDSSSKSPEPSADESPDNDKETQGGGGDAGKKRKRRVLFSKAQTYELERRFRQQRYLSAPEREHLASLIRLTPTQVKIWFQNHRYKMKRARAEKGMEVTPLPSPRRVAVPVLVRDGKPCHALKAQDLAAATFQAGIPFSAYSAQSLQHMQYNAQYSSASTPQYPTAHPLVQAQQWTW"
